The test concerns the target T1, Rbg1-TAP (S. cerevisiae (endogenous in BY4741)) (UniProt P39729).
T1 sequence: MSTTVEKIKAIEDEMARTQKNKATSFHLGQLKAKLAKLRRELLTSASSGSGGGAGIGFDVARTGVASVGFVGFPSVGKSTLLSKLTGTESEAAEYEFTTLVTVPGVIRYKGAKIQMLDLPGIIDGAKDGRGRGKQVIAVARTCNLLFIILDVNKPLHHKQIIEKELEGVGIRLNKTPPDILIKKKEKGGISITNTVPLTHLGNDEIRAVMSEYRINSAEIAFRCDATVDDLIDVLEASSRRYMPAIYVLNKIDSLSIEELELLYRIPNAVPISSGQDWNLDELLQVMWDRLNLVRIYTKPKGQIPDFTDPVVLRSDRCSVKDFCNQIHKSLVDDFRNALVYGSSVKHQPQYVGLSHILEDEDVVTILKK
The experiment in a line: native gel or EMSA; Native-PAGE (NativePAGE 4-16% Bis-Tris, 1% digitonin lysate, 0.25% G-250, room temperature) of yeast lysates, immunoblotting with PAP against Rbg1-TAP; wild-type and tma46 deletion cells, and wild-type cells with vector or multicopy RBG1 or TMA46. Background: Mobility shift assays separate free from complexed probe on a gel.

These are yes or no findings as the source states them, for the method shown. Some entries that bind do so weakly or less than the wild type.

B1: Tma46 (protein, UniProt Q12000 1-345)
chain: MPPKKGKQAQAAGKKKDNVDKTFGMKNKNRSTKVQKYIKQVQSQSDPKKEEMRLKKLEEKKRREAEEAERRALFNPVADQRVRAGVDPKSMVCALFKLGNCNKGAKCKFSHDLNVGRRMEKKDLYQDTRSEKENDTMDNWDEEKLRKVILSKHGNPKTTTDKVCKYFIEAVENGKYGWFWICPNGGDKCMYRHSLPEGFVLKTNEQKRLERESLEKQPKITLEEFIETERGKLDKSKLTPITIANFAQWKKDHVIAKINAEKKLSSKRKPTGREIILKMSAENKSFETDNADMPDDVTQGSAWDLTEFTDALKKADHQDDGGIKDYGDGSNPTFDIKKANSATLA
B1: the binding entry is listed as “binds”.

These data come from paper PMC5266272.
